The whole screen tested about 300,000 compounds, of which about 5,400 (1.8%) were called active. Inconclusive results, whose numbers are uncertain, are shown with a selection of clear calls. Calls follow the shape of the full dose curve; tested in HEK293 cells. A potency beside an inconclusive call is a rough fit, not a confirmed value.
Assay: qHTS for inhibitors of binding or entry into cells for Marburg Virus
Settings: Marburg virus pseudotyped entry inhibition, cell reporter; activity change, negative = inhibition: at 37.8 µM (top of the series) unless noted
% is scaled to controls: 0 for no effect and ±100 for the full control effect; potency is read from the fitted curve at half-maximal effect.

SMILES	activity change, negative = inhibition	Potency
Cc1ccc2c(c1)C1(OCCO1)C(=O)N2	inactive: 19.2% [at 46.1 µM]	–
Cc1ccc(C)c(N2CCN(C(=O)C34CC5CC(C3)CC(n3nnc(C)n3)(C5)C4)CC2)c1	–	inconclusive: 35.5 µM [inhibitor, single point]
CCOC(=O)C1CCCN(C(=O)c2ccc(-c3ccc([N+](=O)[O-])cc3)o2)C1 (stereo unspecified)	–	inconclusive: 1.26 µM [inhibitor, single point]
COc1ccc(N2CC(O)=C(c3nc4ccccc4s3)C2=N)c(OC)c1	–	inconclusive: 13 µM [inhibitor, single point]
CCOC(=O)c1cc2c(nc1N)CC(C)(C)OC2	inactive: 19.1%	–
CC(OC(=O)c1cc[n+]([O-])cc1)C(=O)NCc1ccccc1 (stereo unspecified)	–	inconclusive: 3.16 µM [activator, single point]
CCCCN(C)CCCNC(=O)Cn1ncc2c3ccccc3n(Cc3ccccc3)c2c1=O	–	inconclusive: 35.5 µM [activator, partial curve, poor fit]
O=C(O)C1CC(=O)N(c2ccc(F)c(F)c2)C1 (stereo unspecified)	–	inconclusive: 0.562 µM [activator, full curve, poor fit]
O=C(/C=C/c1ccccc1)NC(=S)NNC(=O)c1cccnc1	inactive: 6.94%	–
CC(C)C(=O)N(Nc1nc2ccccc2s1)C(=O)C(C)C	–	inconclusive: 1.41 µM [activator, single point]
CCN(CC)c1ccc(-n2c(O)c(C=C3N=c4ccccc4=N3)sc2=S)cc1	inactive: -0.485%	–
COc1ccccc1OCCNC(=O)c1ccc(NC(=O)CC2SC(N3CCCC3)=NC2=O)cc1 (stereo unspecified)	inactive: 1.28%	–
CCOc1ccc(N(CC)S(=O)(=O)c2cc(Br)cc3c2N(C(C)=O)C(C)C3)cc1 (stereo unspecified)	–	inconclusive: 11.2 µM [inhibitor, single point]
CC(=O)c1ccc(NC(=O)Cn2nc(C)c([N+](=O)[O-])c2C)cc1	–	inconclusive: 0.355 µM [inhibitor, partial curve, poor fit]
Cc1ccc2c(c1)C(O)(CC(=O)c1ccc(C)s1)C(=O)N2 (stereo unspecified)	inactive: 29.4%	–
O=C(N/N=C1\CC2CC=CC12)c1ccccc1Cl (stereo unspecified)	inactive: 20.7% [at 46.1 µM]	–
Cc1nc(N2CCN(C(=O)c3ccco3)CC2)c2c3c(sc2n1)CC(C)CC3 (stereo unspecified)	–	active: 13 µM
O=C1c2ccccc2NC(c2cnc3ccccc3n2)N1O (stereo unspecified)	–	inconclusive: 8.91 µM [inhibitor, partial curve, poor fit]
CC(c1nc2ccccc2n1Cc1ccccc1)N1CCCCC1 (stereo unspecified)	–	inconclusive: 10 µM [inhibitor, partial curve, poor fit]
COc1cc(S(=O)(=O)N2CCN(Cc3cccs3)CC2)ccc1NC(C)=O	–	inconclusive: 7.94 µM [inhibitor, partial curve, poor fit]
Cn1nnc2cc(C(=O)N3CCN(c4ccccn4)CC3)ccc21	–	inconclusive: 35.5 µM [activator, single point]
COc1ccc(/C(N)=N/OC(=O)c2ccc3c(c2)OCO3)cc1OC	–	inconclusive: 20.6 µM [inhibitor, partial curve, poor fit]

In a second layout: entries from further up
SMILES,"activity change, negative = inhibition",Potency
CC(OC(=O)c1cc[n+]([O-])cc1)C(=O)NCc1ccccc1 (stereo unspecified),–,"inconclusive: 3.16 µM [activator, single point]"
COc1ccccc1OCCNC(=O)c1ccc(NC(=O)CC2SC(N3CCCC3)=NC2=O)cc1 (stereo unspecified),inactive: 1.28%,–
Cc1nc(N2CCN(C(=O)c3ccco3)CC2)c2c3c(sc2n1)CC(C)CC3 (stereo unspecified),–,active: 13 µM
Cn1nnc2cc(C(=O)N3CCN(c4ccccn4)CC3)ccc21,–,"inconclusive: 35.5 µM [activator, single point]"
COc1ccc(/C(N)=N/OC(=O)c2ccc3c(c2)OCO3)cc1OC,–,"inconclusive: 20.6 µM [inhibitor, partial curve, poor fit]"

The list goes on:

SMILES	activity change, negative = inhibition	Potency
O=C(NCc1ccco1)C(c1ccncc1)N(CCC1=CCCCC1)C(=O)Cn1nnc2ccccc21 (stereo unspecified)	–	inconclusive: 14.1 µM [inhibitor, single point]
COc1nc(C#N)c(N2CCOCC2)o1	–	inconclusive: 11.6 µM [activator, partial curve, poor fit]
CCOC(=O)C1=C(CS(=O)(=O)c2ccccc2)NC(=O)NC1c1ccc(O)c(OC)c1 (stereo unspecified)	inactive: 2.25% [at 46.1 µM]	–
COc1ccc(S(=O)(=O)c2cnc3ccc(Cl)cc3c2N2CCCCC2C)cc1 (stereo unspecified)	–	inconclusive: 22.4 µM [inhibitor, single point]
CCN(CC)S(=O)(=O)c1ccc(N2C(=O)Nc3ccccc3N2O)cc1	–	inconclusive: 1.12 µM [inhibitor, partial curve]
Cc1cc(C)cc(OCC(=O)Nc2c(C)ccc3nsnc23)c1	inactive: 10.7% [at 46.1 µM]	–
Cc1ccc(C(=O)OCC(=O)Nc2ccc3[nH]c(=O)[nH]c3c2)cc1S(=O)(=O)N1CCOCC1	–	inconclusive: 22.4 µM [activator, single point]
c1ccc(CCCCc2ccccn2)cc1	–	inconclusive: 11.2 µM [activator, partial curve, poor fit]
Cc1ccc(OCCn2cc(/C=C3\C(=O)NN(c4ccccc4)C3=O)c3ccccc32)cc1	inactive: 7.69%	–
CCOC(=O)c1c(C)[nH]c(C)c1-c1ccccc1OC	–	inconclusive: 0.0316 µM [inhibitor, partial curve, poor fit]
Cc1ccc(C(=O)N2CCN(c3ccc(F)cc3)CC2)cc1S(=O)(=O)N1CCCCC1	–	inconclusive: 7.94 µM [inhibitor, partial curve, poor fit]
Cc1ccc(C(=O)/C=C/c2ccccc2[N+](=O)[O-])cc1	–	inconclusive: 20 µM [inhibitor, single point]
O/N=C/c1ccccc1OCc1ccc(Cl)cc1	inactive: -13%	–
O=[N+]([O-])c1ccc(C(=Nc2cccc3ccccc23)N2CCOCC2)cc1	–	inconclusive: 23.1 µM [inhibitor, partial curve, poor fit]
CS(=O)(=O)N(CC(O)Cn1c2ccccc2c2ccccc21)c1ccccc1 (stereo unspecified)	–	inconclusive: 35.5 µM [inhibitor, single point]
CCN(Cc1ccccc1)S(=O)(=O)c1ccc(C(=O)N(CCCN(C)C)c2nc3c(C)c(C)ccc3s2)cc1	–	active: 6.31 µM
Cc1ccc(-n2c(C)n[nH]c2=S)cc1C	–	inconclusive: 17.8 µM [inhibitor, single point]
Cc1ccccc1CN1C2=NCCCN2c2ccccc21	–	inconclusive: 16.4 µM [inhibitor, single point]
COc1ccc(COC(=O)NN=C2C[C@@H](O)[C@@H](O)[C@@H]3[C@H]4C(=O)N(C5CCCCC5)C(=O)[C@@H]4CC[C@@H]23)cc1	–	inconclusive: 0.944 µM [activator, single point]
O=C(CN1CCC2(CC1)OCCO2)c1ccc2cc[nH]c2c1	–	inconclusive: 18.3 µM [activator, single point]
N#C/C(=C\C1CC=CCC1)c1nc2ccccc2[nH]1 (stereo unspecified)	–	inconclusive: 1.03 µM [inhibitor, full curve, poor fit]
S=C1NC2=C(CCC/C2=C\c2ccccc2)C(c2ccccc2)N1 (stereo unspecified)	–	inconclusive: 0.891 µM [inhibitor, full curve, poor fit]

SMILES	activity change, negative = inhibition	Potency
O=C(Cn1cc([N+](=O)[O-])cn1)NCc1cc2ccccc2[nH]1	inactive: 1.01%	–
COCCNC(=O)C1CCC(=O)N(c2ccc(OC)cc2)C1c1ccc(OC)c(OC)c1 (stereo unspecified)	inactive: -6.53%	–
COc1ccc(CCC(=O)Nc2ccc(-c3noc(-c4ccc(OC)c(OC)c4)n3)cc2)cc1	–	inconclusive: 1.03 µM [inhibitor, full curve, poor fit]
CCc1nnc(NC(=O)NC(C)(C)C)s1	inactive: 7.27%	–
CCOC(=O)c1ccc(N2C(=O)C=CC2=O)cc1	–	inconclusive: 0.73 µM [inhibitor, full curve, poor fit]
CC(=O)Nc1ccc(OCC(O)CN2CCN(c3ccccc3Cl)CC2)cc1 (stereo unspecified)	–	inconclusive: 1.12 µM [activator, single point]
COc1ccc(O)c(C(=O)CC(=O)c2ccccc2C)c1	–	inconclusive: 1.26 µM [activator, partial curve, poor fit]
O=C(OCCN1CCCCC1)C1(c2ccccc2)CCCC1	–	inconclusive: 10 µM [inhibitor, partial curve, poor fit]
O=C(c1cn2ccccc2n1)N1CCc2c([nH]c3ccccc23)C1c1ccccn1 (stereo unspecified)	–	inconclusive: 35.5 µM [inhibitor, single point]
O=C(N/N=C/c1cn(CC(=O)N2CCOCC2)c2ccccc12)c1cccnc1	–	inconclusive: 2.82 µM [activator, partial curve, poor fit]
N#Cc1cc2ccccc2nc1SCc1ccccn1	–	inconclusive: 16.4 µM [inhibitor, partial curve]
COc1ccc(-c2cn(-c3ccc(C)cc3)c(S(=O)(=O)CC(=O)Nc3ccc(F)cc3)n2)cc1	–	inconclusive: 2.24 µM [inhibitor, partial curve, poor fit]
COc1ccccc1NC(=O)c1cc(=O)c2ccc(C)c(C)c2o1	–	inconclusive: 6.31 µM [inhibitor, single point]
CCn1c(CCc2ccccc2)n[nH]c1=S	–	inconclusive: 0.501 µM [inhibitor, partial curve, poor fit]
CCc1nnc(NC(=O)CCc2c[nH]c3ccccc23)s1	–	inconclusive: 11.2 µM [inhibitor, partial curve, poor fit]
Cc1ccc(OCC(=O)Nc2ccc(F)cc2)cc1	inactive: 4.7%	–
C=C(C(=O)c1ccccc1)C(c1ccccc1)C(C)C(=O)c1ccccc1 (stereo unspecified)	–	inconclusive: 20 µM [inhibitor, single point]
Nc1c(C(=O)NCc2ccccc2)c2nc3ccccc3nc2n1-c1ccc2c(c1)OCO2	–	inconclusive: 2.91 µM [inhibitor, partial curve]
O=C(N/N=C/c1cn(-c2cccs2)nc1-c1ccccc1)c1ccccc1O	–	active: 16.4 µM
CCn1c(SCC(=O)c2ccccc2)nnc1-c1ccoc1C	–	inconclusive: 35.5 µM [activator, partial curve, poor fit]
COc1ccc(CCNc2ccc(N3C(=O)CC(C)C3=O)cc2[N+](=O)[O-])cc1OC (stereo unspecified)	–	inconclusive: 25.1 µM [inhibitor, single point]
Cc1ccccc1S(=O)(=O)Nc1ncnc2ccccc12	inactive: 2.38% [at 46.1 µM]	–

Reference: PubChem BioAssay AID540276 (National Center for Advancing Translational Sciences (NCATS), 2011)
